These are yes or no findings as the source states them, for the method shown. Binding seen in cells or lysates may run through a third protein. Here binding means that the protein was enriched with, or labelled near, the bait; the list need not be complete.
What follows are molecules tested against Dysferlin (endogenous; source of the IP not stated: IM2 myoblasts, IM2 myotubes or human skeletal muscle) (not stated (endogenous in mouse IM2 cells or human skeletal muscle)) (UniProt Q9ESD7) (assay: affinity purification with mass spectrometry; HCAb H7 IP of endogenous dysferlin, mass spectrometry; the data set (IM2 myoblasts, IM2 myotubes or human skeletal muscle) is not named in the text (Table S1)).

By UniProt entry, the sequences of proteins in these tests, tags left out. Residues count along the entry.
UniProt Q9ESD7: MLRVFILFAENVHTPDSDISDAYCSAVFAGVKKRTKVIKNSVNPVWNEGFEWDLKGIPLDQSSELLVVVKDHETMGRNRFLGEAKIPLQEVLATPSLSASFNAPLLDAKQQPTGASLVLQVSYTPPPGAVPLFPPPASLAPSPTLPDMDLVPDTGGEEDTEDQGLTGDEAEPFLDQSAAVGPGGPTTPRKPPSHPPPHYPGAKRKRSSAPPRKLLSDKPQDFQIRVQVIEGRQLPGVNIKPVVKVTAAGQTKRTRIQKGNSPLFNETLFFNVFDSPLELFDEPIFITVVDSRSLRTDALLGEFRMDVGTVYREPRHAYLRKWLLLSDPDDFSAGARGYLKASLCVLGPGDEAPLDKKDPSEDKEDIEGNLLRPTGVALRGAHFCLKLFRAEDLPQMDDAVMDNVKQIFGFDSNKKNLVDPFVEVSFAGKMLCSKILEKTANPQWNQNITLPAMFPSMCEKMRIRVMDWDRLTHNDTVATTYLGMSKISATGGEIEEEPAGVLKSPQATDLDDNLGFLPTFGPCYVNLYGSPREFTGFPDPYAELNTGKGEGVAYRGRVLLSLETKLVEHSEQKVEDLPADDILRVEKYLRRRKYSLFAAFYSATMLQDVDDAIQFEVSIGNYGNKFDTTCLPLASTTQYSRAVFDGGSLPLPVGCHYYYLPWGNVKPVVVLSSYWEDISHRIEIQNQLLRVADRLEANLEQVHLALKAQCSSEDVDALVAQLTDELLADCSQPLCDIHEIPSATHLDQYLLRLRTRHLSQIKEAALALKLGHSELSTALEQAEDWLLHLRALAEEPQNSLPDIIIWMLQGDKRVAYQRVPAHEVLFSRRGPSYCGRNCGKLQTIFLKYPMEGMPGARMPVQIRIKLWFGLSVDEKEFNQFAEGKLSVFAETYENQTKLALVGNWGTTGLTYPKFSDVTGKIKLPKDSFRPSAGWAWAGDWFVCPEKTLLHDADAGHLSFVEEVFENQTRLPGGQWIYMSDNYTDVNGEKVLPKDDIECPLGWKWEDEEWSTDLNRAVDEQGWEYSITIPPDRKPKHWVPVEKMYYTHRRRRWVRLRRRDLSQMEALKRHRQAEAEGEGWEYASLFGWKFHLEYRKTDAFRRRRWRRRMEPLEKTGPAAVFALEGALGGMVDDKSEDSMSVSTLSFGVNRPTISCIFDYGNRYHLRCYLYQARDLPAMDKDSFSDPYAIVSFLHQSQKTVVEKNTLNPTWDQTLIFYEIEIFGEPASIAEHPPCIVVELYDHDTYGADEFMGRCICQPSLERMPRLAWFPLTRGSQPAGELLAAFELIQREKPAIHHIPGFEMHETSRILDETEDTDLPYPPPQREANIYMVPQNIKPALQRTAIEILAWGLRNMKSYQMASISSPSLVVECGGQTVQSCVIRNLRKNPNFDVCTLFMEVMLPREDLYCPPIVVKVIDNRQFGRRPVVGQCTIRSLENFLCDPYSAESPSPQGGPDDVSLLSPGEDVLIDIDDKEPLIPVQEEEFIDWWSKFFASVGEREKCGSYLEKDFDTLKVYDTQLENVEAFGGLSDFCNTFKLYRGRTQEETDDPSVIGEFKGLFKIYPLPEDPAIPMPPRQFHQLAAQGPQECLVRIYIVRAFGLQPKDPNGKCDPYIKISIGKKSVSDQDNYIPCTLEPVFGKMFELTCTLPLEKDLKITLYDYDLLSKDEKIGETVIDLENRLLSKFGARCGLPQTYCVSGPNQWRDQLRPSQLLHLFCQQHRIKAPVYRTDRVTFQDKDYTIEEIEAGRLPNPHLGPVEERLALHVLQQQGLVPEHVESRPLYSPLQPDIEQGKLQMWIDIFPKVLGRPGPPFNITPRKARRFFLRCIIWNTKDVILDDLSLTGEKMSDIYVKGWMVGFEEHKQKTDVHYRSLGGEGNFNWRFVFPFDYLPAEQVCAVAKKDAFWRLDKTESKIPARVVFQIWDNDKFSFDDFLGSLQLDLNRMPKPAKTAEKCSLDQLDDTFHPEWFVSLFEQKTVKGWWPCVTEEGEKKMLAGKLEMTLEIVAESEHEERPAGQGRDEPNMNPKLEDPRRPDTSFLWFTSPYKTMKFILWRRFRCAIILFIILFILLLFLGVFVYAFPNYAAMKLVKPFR
UniProt Q04447: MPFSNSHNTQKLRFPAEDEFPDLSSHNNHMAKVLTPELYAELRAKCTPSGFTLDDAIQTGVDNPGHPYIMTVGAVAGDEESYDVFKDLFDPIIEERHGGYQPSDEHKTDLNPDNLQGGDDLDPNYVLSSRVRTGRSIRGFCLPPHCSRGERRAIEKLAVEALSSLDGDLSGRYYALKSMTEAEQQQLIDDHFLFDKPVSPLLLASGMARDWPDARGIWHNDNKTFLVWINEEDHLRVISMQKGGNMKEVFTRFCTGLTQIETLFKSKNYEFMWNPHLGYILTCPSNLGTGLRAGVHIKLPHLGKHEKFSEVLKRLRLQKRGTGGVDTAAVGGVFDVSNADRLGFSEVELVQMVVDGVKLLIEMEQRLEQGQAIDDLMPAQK
UniProt P07310: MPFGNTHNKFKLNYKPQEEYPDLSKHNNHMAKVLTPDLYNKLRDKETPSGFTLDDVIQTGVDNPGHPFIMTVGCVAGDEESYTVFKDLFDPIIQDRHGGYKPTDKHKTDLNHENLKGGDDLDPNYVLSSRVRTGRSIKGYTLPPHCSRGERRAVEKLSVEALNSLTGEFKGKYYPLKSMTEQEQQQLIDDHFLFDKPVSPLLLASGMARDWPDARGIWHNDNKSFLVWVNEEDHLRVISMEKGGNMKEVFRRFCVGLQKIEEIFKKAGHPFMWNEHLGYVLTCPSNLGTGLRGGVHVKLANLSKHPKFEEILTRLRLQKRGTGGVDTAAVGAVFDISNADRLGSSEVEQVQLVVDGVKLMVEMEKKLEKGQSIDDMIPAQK
UniProt Q6ZWX6: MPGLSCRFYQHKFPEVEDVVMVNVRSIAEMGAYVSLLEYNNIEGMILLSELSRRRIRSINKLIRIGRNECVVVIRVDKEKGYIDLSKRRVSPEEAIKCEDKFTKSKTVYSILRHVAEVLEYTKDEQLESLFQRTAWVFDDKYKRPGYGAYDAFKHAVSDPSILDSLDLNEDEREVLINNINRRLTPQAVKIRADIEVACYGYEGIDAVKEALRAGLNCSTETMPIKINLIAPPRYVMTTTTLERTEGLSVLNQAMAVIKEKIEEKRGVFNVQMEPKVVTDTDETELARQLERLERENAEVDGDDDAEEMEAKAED
UniProt P07356: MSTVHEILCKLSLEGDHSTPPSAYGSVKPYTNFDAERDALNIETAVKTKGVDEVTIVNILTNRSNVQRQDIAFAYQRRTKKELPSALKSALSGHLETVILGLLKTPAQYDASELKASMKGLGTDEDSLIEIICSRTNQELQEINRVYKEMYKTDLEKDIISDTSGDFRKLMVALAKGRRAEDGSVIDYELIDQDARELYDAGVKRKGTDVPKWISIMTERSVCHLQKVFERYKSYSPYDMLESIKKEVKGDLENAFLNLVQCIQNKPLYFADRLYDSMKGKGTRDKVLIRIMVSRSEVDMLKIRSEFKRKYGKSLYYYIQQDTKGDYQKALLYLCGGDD
UniProt O75923: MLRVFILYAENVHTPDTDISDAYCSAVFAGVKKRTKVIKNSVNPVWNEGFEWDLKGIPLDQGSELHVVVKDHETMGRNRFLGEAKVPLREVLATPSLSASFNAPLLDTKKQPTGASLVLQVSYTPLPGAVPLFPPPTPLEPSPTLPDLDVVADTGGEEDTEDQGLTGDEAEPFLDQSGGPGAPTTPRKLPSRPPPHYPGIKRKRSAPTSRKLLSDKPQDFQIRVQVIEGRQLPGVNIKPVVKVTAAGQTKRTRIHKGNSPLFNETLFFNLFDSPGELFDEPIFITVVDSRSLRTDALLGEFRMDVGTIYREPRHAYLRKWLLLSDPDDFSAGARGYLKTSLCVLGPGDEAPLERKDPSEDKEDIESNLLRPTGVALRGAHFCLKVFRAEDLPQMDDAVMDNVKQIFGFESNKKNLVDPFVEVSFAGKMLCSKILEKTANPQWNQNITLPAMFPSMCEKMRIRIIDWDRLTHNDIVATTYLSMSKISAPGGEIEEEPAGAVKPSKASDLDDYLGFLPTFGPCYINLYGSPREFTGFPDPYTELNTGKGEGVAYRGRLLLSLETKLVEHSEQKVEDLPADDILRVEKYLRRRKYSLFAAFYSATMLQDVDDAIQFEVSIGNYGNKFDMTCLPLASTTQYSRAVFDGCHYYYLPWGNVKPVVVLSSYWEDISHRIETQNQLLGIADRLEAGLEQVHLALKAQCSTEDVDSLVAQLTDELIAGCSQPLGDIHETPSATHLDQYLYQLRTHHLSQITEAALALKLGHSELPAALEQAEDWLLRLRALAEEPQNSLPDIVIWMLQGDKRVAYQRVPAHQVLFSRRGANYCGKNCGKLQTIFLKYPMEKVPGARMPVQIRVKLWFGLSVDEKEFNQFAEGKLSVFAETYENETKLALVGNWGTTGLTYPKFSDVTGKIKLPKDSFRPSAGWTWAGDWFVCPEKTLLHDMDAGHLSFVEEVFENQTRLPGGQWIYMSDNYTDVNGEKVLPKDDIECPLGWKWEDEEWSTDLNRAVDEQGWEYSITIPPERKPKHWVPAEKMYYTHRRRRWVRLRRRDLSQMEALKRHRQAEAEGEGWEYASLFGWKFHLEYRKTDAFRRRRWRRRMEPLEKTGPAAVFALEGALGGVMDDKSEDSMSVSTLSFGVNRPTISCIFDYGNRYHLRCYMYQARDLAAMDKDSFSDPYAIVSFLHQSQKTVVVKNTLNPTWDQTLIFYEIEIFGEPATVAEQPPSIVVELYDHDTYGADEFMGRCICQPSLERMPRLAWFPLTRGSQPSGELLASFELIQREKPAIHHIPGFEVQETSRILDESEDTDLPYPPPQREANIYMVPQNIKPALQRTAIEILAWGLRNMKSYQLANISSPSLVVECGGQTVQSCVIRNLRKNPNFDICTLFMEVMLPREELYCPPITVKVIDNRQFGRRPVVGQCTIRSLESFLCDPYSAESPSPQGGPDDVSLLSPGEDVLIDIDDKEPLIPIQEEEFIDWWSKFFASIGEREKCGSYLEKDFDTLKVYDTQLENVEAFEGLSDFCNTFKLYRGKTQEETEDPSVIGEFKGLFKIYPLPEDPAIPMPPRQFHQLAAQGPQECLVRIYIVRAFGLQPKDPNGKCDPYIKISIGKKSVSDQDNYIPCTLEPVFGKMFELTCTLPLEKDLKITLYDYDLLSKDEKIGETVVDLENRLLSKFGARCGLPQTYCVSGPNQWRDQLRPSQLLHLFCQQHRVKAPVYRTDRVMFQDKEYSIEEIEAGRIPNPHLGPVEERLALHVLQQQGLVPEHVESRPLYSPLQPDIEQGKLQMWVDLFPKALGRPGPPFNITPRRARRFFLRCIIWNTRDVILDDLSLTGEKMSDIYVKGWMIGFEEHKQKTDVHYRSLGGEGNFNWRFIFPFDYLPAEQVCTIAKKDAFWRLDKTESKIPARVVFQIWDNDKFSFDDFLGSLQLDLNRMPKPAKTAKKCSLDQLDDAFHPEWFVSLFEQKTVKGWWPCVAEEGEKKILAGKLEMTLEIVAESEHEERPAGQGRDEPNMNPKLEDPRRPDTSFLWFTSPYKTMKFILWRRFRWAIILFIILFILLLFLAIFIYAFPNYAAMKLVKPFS
UniProt P14625, residues 22-803: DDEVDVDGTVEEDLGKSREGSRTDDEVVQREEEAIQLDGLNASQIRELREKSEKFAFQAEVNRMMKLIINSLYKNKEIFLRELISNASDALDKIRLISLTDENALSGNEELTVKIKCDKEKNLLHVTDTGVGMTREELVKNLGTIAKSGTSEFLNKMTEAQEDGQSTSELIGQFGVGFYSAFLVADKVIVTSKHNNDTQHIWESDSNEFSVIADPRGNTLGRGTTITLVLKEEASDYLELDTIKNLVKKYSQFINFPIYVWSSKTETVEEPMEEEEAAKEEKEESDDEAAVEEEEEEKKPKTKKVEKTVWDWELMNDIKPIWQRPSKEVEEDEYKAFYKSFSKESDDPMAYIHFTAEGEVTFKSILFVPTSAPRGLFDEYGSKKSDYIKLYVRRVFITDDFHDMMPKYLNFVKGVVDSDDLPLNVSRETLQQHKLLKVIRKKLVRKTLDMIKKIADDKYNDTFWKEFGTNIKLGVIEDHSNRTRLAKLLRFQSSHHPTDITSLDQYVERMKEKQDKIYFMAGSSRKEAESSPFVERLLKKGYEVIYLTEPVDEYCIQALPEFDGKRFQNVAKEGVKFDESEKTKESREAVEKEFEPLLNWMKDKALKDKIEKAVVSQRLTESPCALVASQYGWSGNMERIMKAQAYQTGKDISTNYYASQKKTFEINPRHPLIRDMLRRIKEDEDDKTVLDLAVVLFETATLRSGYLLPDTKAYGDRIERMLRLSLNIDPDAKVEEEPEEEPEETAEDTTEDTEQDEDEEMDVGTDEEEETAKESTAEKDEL

Row | binding | Molecule
1 | binds | Mannose-6 phosphate receptor (CIMPR, or IGF2R) (from UniProt Q07113 36-2483)
2 | binds | VCP (from UniProt Q01853 1-806)
3 | binds | creatine kinase B (from UniProt Q04447 1-381)
4 | binds | creatine kinase M (from UniProt P07310 1-381)
5 | binds | clathrin-α (CLTA) (protein, UniProt O08585 1-235) MAELDPFGAPAGAPGGPALGNGVAGAGEEDPAAAFLAQQESEIAGIENDEAFAILDGGAPGRATRRAAGGPDAVDGVMNGEYYQESNGPTDSYAAISEVDRLQSEPESIRKWREEQTERLEALDANSRKQEAEWKEKAIKELEEWYARQDEQLQKTKANNRVADEAFYKQPFADLIGYVAAEEAFVNDIDESSPGTEWERVARLCDFNPKSSKQAKDVSRMRSVLISLKQAPLVH

What follows are molecules tested against Dysferlin (endogenous, mouse IM2 myoblasts and myotubes) (mouse (endogenous in IM2)) (UniProt Q9ESD7) (assay: affinity purification with mass spectrometry; HCAb H7 IP of endogenous dysferlin from IM2 myoblast and myotube (5 days post-differentiation) lysates in Triton buffer; SDS-PAGE, in-gel trypsin digestion, nano LC ESI MS/MS).

Row | Molecule | binding
6 | ATP synthase (ATP5b) (endogenous, mouse IM2 cells) (from UniProt P56480 47-529) | binds
7 | CAPZB (endogenous, mouse IM2 cells) (from UniProt P47757 1-277) | binds
8 | DCTN1 (endogenous, mouse IM2 myoblasts) (from UniProt O08788 1-1281) | binds
9 | EIF2S1 (endogenous, mouse IM2 myoblasts) (from UniProt Q6ZWX6 1-315) | binds
10 | EIF3B (endogenous, mouse IM2 cells) (from UniProt Q8JZQ9 1-803) | binds
11 | Vinculin (endogenous, mouse IM2 cells) (from UniProt Q64727 1-1066) | binds

The next lines start with the values.

Row | binding | Molecule
12 | binds | ACTN2 (endogenous, mouse IM2 myotubes) (from UniProt Q9JI91 1-894)
13 | binds | ANXA2 (endogenous, mouse IM2 cells) (from UniProt P07356 1-339)
14 | binds | LDB3 (endogenous, mouse IM2 myotubes) (from UniProt Q9JKS4 1-723)
15 | binds | Myoferlin (endogenous, mouse IM2 cells) (from UniProt Q69ZN7 1-2048)
16 | binds | UTRN (endogenous, mouse IM2 myoblasts) (from UniProt E9Q6R7 1-3430)

What follows are molecules tested against Dysferlin (endogenous, human skeletal muscle tissue) (human (endogenous in skeletal muscle)) (UniProt O75923) (assay: affinity purification with mass spectrometry; HCAb H7 IP of endogenous dysferlin from human skeletal muscle tissue homogenised in CHAPS buffer; SDS-PAGE, in-gel trypsin digestion, nano LC ESI MS/MS).

Row | Molecule | binding
17 | DCTN1 (endogenous, human skeletal muscle tissue) (from UniProt Q14203 1-1278) | binds
18 | EIF3B (endogenous, human skeletal muscle tissue) (from UniProt P55884 1-814) | binds
19 | HSPA5 (endogenous, human skeletal muscle tissue) (from UniProt P11021 19-654) | binds
20 | LMNA (endogenous, human skeletal muscle tissue) (from UniProt P02545 1-646) | binds
21 | STAT1 (endogenous, human skeletal muscle tissue) (from UniProt P42224 1-750) | binds

Next, values leading:

Row | binding | Molecule
22 | binds | ATP synthase (ATP5b) (endogenous, human skeletal muscle tissue) (from UniProt P06576 48-529)
23 | binds | HSP90B1 (endogenous, human skeletal muscle tissue) (from UniProt P14625 22-803)
24 | binds | Myoferlin (endogenous, human skeletal muscle tissue) (from UniProt Q9NZM1 1-2061)

Biological target: Dysferlin (endogenous, mouse IM2 myoblasts and myotubes) (mouse (endogenous in IM2)) (UniProt Q9ESD7)
Test: affinity purification with mass spectrometry; HCAb H7 IP of endogenous dysferlin from IM2 myoblast and myotube (5 days post-differentiation) lysates in Triton buffer; SDS-PAGE, in-gel trypsin digestion, nano LC ESI MS/MS
Remark: another data set of the same source

Row | binding | Molecule
25 | binds | TRIM72 (endogenous, mouse IM2 myotubes) (protein, UniProt Q1XH17 1-477) MSAAPGLLRQELSCPLCLQLFDAPVTAECGHSFCRACLIRVAGEPAADGTVACPCCQAPTRPQALSTNLQLSRLVEGLAQVPQGHCEEHLDPLSIYCEQDRTLVCGVCASLGSHRGHRLLPAAEAQARLKTQLPQQKMQLQEACMRKEKTVAVLEHQLVEVEETVRQFRGAVGEQLGKMRMFLAALESSLDREAERVRGDAGVALRRELSSLNSYLEQLRQMEKVLEEVADKPQTEFLMKFCLVTSRLQKILSESPPPARLDIQLPVISDDFKFQVWKKMFRALMPALEELTFDPSSAHPSLVVSSSGRRVECSDQKAPPAGEDTRQFDKAVAVVAQQLLSQGEHYWEVEVGDKPRWALGVMAADASRRGRLHAVPSQGLWLLGLRDGKILEAHVEAKEPRALRTPERPPARIGLYLSFADGVLAFYDASNPDVLTPIFSFHERLPGPVYPIFDVCWHDKGKNAQPLLLVGPEQEQA
